# Experimental data: PubChem BioAssay AID493014 (National Center for Advancing Translational Sciences (NCATS), 2011)
# The other results are listed elsewhere or left out. The main result of the screen is listed elsewhere. These columns were measured beside it and carry no call. The list favours compounds with an active or inconclusive main result. The note in brackets gives the kind of curve behind each potency; many fits are weak.
# Experiment: qHTS Assay to Find Inhibitors of Chronic Active B-Cell Receptor Signaling
# Settings: ABC-DLBCL IkBa-CBG/CBR reporter, luminescence ratio (green luciferase fused to IkBa over red control in TMD8 lymphoma cells), 4 h
# Outline: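 Concentration-response series (up to 46 uM) were applied to TMD8 dual-reporter cells for 4 h at 37C with doxycycline. Green/red ratio, after filter-overlap correction, defined %Activity; red signal alone was normalised to basal cells and zero luminescence.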
# [1] = measured here: CBR red luminescence, cell number
# [2] = measured here: IkBa-CBG green luminescence
SMILES,AC50 [1],AC50 [2]
COc1ccc(C(=O)NCc2ccc3c(c2)OCO3)cc1S(=O)(=O)N(C)Cc1ccccc1,"0.0058 µM [falling, full curve, poor fit]",–
CN1CCN(c2nc3c(c(=O)n(C)c(=O)n3C)n2Cc2ccccc2)CC1,"0.0891 µM [rising, full curve, poor fit]",–
Nc1nc(N)nc(-c2ccccc2O)n1,"1.78 µM [falling, partial curve, poor fit]",–
O=[N+]([O-])c1cc(-c2n(-c3ccccn3)c3ccccc3[n+]2-c2ccccn2)ccc1Cl,"35.5 µM [falling, partial curve, poor fit]",–
COc1ccc(C2=Nn3c(nnc3-c3cccnc3)SC2)cc1,"6.51 µM [falling, partial curve, poor fit]",–
COc1ccccc1/C=C/C(=O)Nc1ccc2c(c1)CCC2,"23.1 µM [falling, partial curve, poor fit]",–
CCn1c(C)nc2cc(C(=O)NNC(=S)Nc3ccccc3Cl)ccc21,"32.6 µM [falling, single point]",–
COc1ccc(C2=CC(c3ccc(Cl)cc3)n3cnnc3N2)cc1OC (stereo unspecified),"25.1 µM [falling, single point]",–
Cc1cccc(OCCC(=O)NNC(=O)Cn2nc(C)cc2C)c1,"23.1 µM [rising, partial curve, poor fit]",–
O=C1c2ccccc2S(=O)(=O)N1CCOc1ccc(F)cc1,"35.5 µM [rising, partial curve, poor fit]",–
Cc1ccc(C)c(C(=O)COC(=O)CCCC(=O)Nc2cc(C(F)(F)F)ccc2Cl)c1,"3.26 µM [rising, single point]",–
N#Cc1c(Cl)nc(N/N=C/c2ccccc2)c(Cl)c1Cl,"23.1 µM [falling, single point]",–
c1cc(SSc2ccncc2)ccn1,"22.4 µM [rising, single point]",–
CN(C)c1ccc(/C=N/n2c(COc3ccccc3)n[nH]c2=S)cc1,"25.9 µM [rising, single point]",–
Cc1ccc(N2C(=O)CC(Sc3ccccc3C(=O)O)C2=O)cc1C (stereo unspecified),"8.91 µM [falling, partial curve]",–
COc1ccc(/C(N)=N/OC(=O)CCCc2ccccc2)cc1,"4.61 µM [rising, full curve, poor fit]",–
Cc1ccc(-c2ccc(CCC(=O)O)n2CC(=O)O)cc1,"35.5 µM [falling, single point]",–
O=C(Nc1ccncc1)c1ccc2c(c1)S(=O)(=O)c1ccccc1C2=O,"0.794 µM [rising, full curve, poor fit]",–
CCn1c(C)cc(/C=C2/SC(=S)NC2=O)c1C,"0.651 µM [rising, full curve, poor fit]",–
Nc1ccc(C2(c3ccc(N)cc3)C(=O)Nc3ccccc32)cc1,"20 µM [falling, partial curve, poor fit]","35.5 µM [rising, partial curve, poor fit]"
CN(CC(=O)Nc1ccc(OC(F)(F)F)cc1)C(=O)/C=C/c1cc2c(cc1[N+](=O)[O-])OCO2,"6.51 µM [rising, single point]",–
COc1ccc(CN2CCSc3sccc3C2=O)cc1,"12.6 µM [rising, single point]",–

SMILES,AC50 [1],AC50 [2]
O=C(Cc1csc(NC(=O)Nc2ccc(Cl)cc2)n1)NC1CCCC1,"1.16 µM [rising, full curve]",–
CC1(C)CC(=O)c2cnc(NC(=O)CSc3nc4ccccc4o3)nc2C1,"2.59 µM [falling, full curve]",–
COc1ccc(C2=NOC(C(=O)N3CCN(c4ccccc4OC)CC3)C2)cc1 (stereo unspecified),"3.26 µM [rising, partial curve, poor fit]",–
Cc1cc(=O)n2nc(N3CCCC(C(=O)N4CCc5ccccc54)C3)sc2n1 (stereo unspecified),"32.6 µM [rising, single point]",–
COc1ccc(NC(=O)c2cccc(OC(=S)N3CCOCC3)c2)cc1,"12.6 µM [falling, single point]",–
O=C(NCCC1=CCCCC1)c1ccc2c(c1)N(Cc1cccc(Cl)c1)C(=O)c1ccccc1S2(=O)=O,"4.47 µM [rising, full curve, poor fit]",–
COCCC(=O)N1CCc2c([nH]c3ccccc23)C1C(C)(C)C (stereo unspecified),"5.62 µM [rising, single point]",–
CC(=O)Oc1ccc2occ(C(=O)c3cccs3)c2c1,"14.1 µM [falling, single point]",–
CCCCN(CC)Cc1ccc(CNC(=S)Nc2cccc(F)c2)o1,"12.6 µM [falling, single point]",–
CC(C)NS(=O)(=O)c1ccc(CCC(=O)N2CCC(C(N)=O)CC2)cc1,"10 µM [falling, partial curve]",–
C/C(CC(=O)Nc1ccc(F)cc1)=N\NC(=O)c1ccccn1,"7.08 µM [falling, partial curve]",–
CCc1ccc(N(CC(=O)NC2CCCCC2)S(=O)(=O)c2c(C)noc2C)cc1,"1.78 µM [falling, partial curve, poor fit]",–
COc1ccc(S(=O)(=O)N(CC(=O)Nc2cccc(C)c2)c2ccc(C)cc2)cc1OC,"10 µM [falling, partial curve, poor fit]",–
CN(C)c1ccc(C(=O)NC2CCCc3ccccc32)cc1 (stereo unspecified),"3.98 µM [falling, partial curve, poor fit]",–
COc1cc(NC(=O)C(C)C)ccc1NC(=O)c1cc2ccccc2o1,"0.891 µM [rising, full curve, poor fit]",–
O=c1c2c([nH]c3ccccc13)CCCCC2,"6.31 µM [rising, single point]",–
Cc1cc(/C=N\NC(=O)CC(=O)NC2CCCCC2)c(C)n1-c1cccc(Cl)c1Cl,"23.1 µM [falling, single point]",–
O=C(NNc1nc2c(F)cc(F)cc2s1)c1ccccc1,"10 µM [falling, single point]",–
Cc1cccc(NC(=O)c2ccc(-n3ccnc3)nc2)c1,"16.4 µM [falling, partial curve, poor fit]",–
CCOC(=O)c1cccc(NC(=O)c2cncc(Br)c2)c1,"6.51 µM [rising, partial curve, poor fit]",–
Oc1c(N=NC(=S)Nc2ccccc2F)c2ccccc2n1Cc1ccccc1,"15.8 µM [falling, single point]",–
CC(=O)c1ccc(NC(=O)c2cc(CC(C)C)nc3ccccc23)cc1,"35.5 µM [falling, single point]",–

SMILES,AC50 [1],AC50 [2]
C=CC[C@H](CC(=O)N[C@H](CO)Cc1ccccc1)C(=O)N[C@@H](COC(=O)[C@@H](CC=C)Cc1ccc(F)cc1)Cc1c[nH]c2ccccc12,"29.1 µM [falling, single point]",–
O=C(OCc1ccc([N+](=O)[O-])cc1)c1cnc(Cl)c(Cl)c1,"35.5 µM [rising, single point]","35.5 µM [falling, single point]"
CN1CCN(c2cc(N3CCc4ccccc4C3)c(F)cc2[N+](=O)[O-])CC1,"29.1 µM [falling, single point]",–
Cc1ccc2c(c1)c1c(n2CC(O)CN2C(=O)CNC2=O)C(=O)CCC1 (stereo unspecified),"5.17 µM [falling, full curve, poor fit]",–
Cc1ccccc1-c1nnc(SCc2ccccc2F)o1,"22.4 µM [rising, partial curve, poor fit]",–
O=C(NCCCN1CCc2ccccc2C1)Nc1ccc(Cl)cc1,"3.55 µM [rising, single point]",–
Cc1cnc(C(=O)Nc2ccc(S(=O)(=O)NCC(C)C)cc2)cn1,"3.55 µM [falling, full curve, poor fit]",–
CCCCCn1c(N2CCN(Cc3ccccc3)CC2)nc2c1c(=O)[nH]c(=O)n2C,"10.3 µM [rising, partial curve, poor fit]",–
COc1ccc(C(=O)NCc2csc(C(C)C)n2)cc1OC1CCN(C(C)=O)CC1,"15.8 µM [falling, single point]",–
COc1ccccc1Nc1nnc(SCC(=O)NC2CC2)s1,"2.06 µM [falling, partial curve]",–
COCc1cc(=O)n2[nH]c(C(F)(F)F)nc2n1,"20.6 µM [rising, single point]",–
CCN(CC)CCNCC(O)(c1ccc(Cl)cc1)c1ccc(Cl)cc1,"12.6 µM [falling, single point]",–
C/C(=N\NC(=O)c1ccc2c(c1)OCCO2)c1ccccc1,"2 µM [falling, full curve]",–
COc1ccc(NC(=O)COc2cccc3c2CCN(Cc2cccnc2)C3=O)cc1,"6.31 µM [falling, partial curve, poor fit]",–
COC(=O)c1sc(NC(=O)c2c(OC)cccc2OC)c(C#N)c1C,"0.316 µM [rising, full curve, poor fit]",–
Cc1ccccc1NS(=O)(=O)c1cccc2nsnc12,"6.31 µM [rising, single point]",–
CC(C)Cc1cc(C(=O)Nc2ccccc2)c2ccccc2n1,"14.1 µM [falling, partial curve, poor fit]",–
O=C(NNc1c2ccccc2nc2ccccc12)c1ccc(O)cc1,"20.6 µM [falling, partial curve, poor fit]",–
COc1ccccc1OCc1ccc(C(=O)N2N=C(C(F)F)CC2(O)C(F)F)o1 (stereo unspecified),"2.91 µM [falling, partial curve, poor fit]",–
O=C(Cc1ccccc1)Nc1ccccc1C(=O)O,"20.6 µM [falling, single point]",–

# Looked up above:
# Entry of Cc1ccccc1NS(=O)(=O)c1cccc2nsnc12 under AC50 [1]: 6.31 µM [rising, single point]
# Entry of COCc1cc(=O)n2[nH]c(C(F)(F)F)nc2n1 under AC50 [1]: 20.6 µM [rising, single point]
# Entry of C=CC[C@H](CC(=O)N[C@H](CO)Cc1ccccc1)C(=O)N[C@@H](COC(=O)[C@@H](CC=C)Cc1ccc(F)cc1)Cc1c[nH]c2ccccc12 under AC50 [1]: 29.1 µM [falling, single point]
